Reference: US20230210116A1, “HONEYBEE REPELLENT” (EARTH CORPORATION, priority 2020, published 2023)
Structures can show the parent of a compound that is named as a salt. For at least one compound, name, drawing or mass did not settle the structure. Some compounds share one wording; it may come from a single statement. Some results were stated once for a whole list of compounds, not compound by compound.

test system: stink bugs; experiment: Test for Confirmation of Stink Bug Behaviors against Active Ingredients 1, 2, 3 (treated filter paper); type: in vivo, southern green stink bugs; settings: Test 3; 0.1% by weight per volume solution, 400 μL
From the text: The test samples in “Test for Confirmation of Honeybee Repelling Effect 1” above were used.
A liquid calcium carbonate/ethanol dispersion was applied on the entire interior wall of a KP cup (100 mm in diameter×90 mm in height) and air-dried, after which a filter paper (90 mm in diameter) was fixed on the bottom face of the KP cup using double-sided tape. A different filter paper (90 mm in diameter) was cut along its diameter and the resulting semicircle-shaped paper was uniformly treated with 400 μL of each test sample or sample for correction, and then placed over the filter paper fixed on the aforementioned bottom face of the KP cup by allowing the circular parts to overlap, for use as a testing device.
The “repelling rate Y” and “corrected repelling rate Z” were calculated from the above “time A (sec)” and “time B (sec)” using the calculation formula below. For the “repelling rate of sample for correction” used to calculate the “corrected repelling rate Z,” the repelling rate of each of the samples for correction above (ethanol alone or water alone being a solvent for the active ingredient) was used.
Corrected repelling rate Z (%)={Repelling rate of test sample−Repelling rate of sample for correction}/{100−Repelling rate of sample for correction}×100
For the test samples, the test samples in “Test for Confirmation of Honeybee Repelling Effect 2” above were used.

| SMILES | Corrected repelling rate (%) Stinkbugs |
| --- | --- |
| C/C=C(\C)C=O [y-13, trans-2-methyl-2-butenal] | x (“x” for rates “not <0”) |
| CCCC=O [y-15, butylaldehyde] | x (“x” for rates “not <0”) |
| CC(=O)c1ccc2ccccc2c1 [y-67, 2′-acetonaphtone] | x (“x” for rates “not <0”) |

test system: honeybees; experiment: Test for Confirmation of Honeybee Repelling Effect 1, 2, 3 (feeding station with 40% sugar water); type: in vivo; settings: Test 1; 2% by weight per volume solution
From the text: The following were used as the test samples for Examples: 2% by weight per volume ethanol solutions of octane (a-1), tetradecane (a-2), heptadecane (a-3), nonadecane (a-4), 2-acetylfuran (b-1), 5-methyl-2-furaldehyde (b-2), furfural (b-3), furaneol (c-1), 2-acetylpyrrole (d-1), 1-benzylpyrrole (d-2), 1-octanol (e-1), 1-dodecanol (e-2), and 1-octadecanol (e-3), respectively; and 2% by weight per volume aqueous solutions of furfuryl alcohol (b-4), sotolon (c-2), and α-angelicalactone (c-3), respectively.
The following were used as the test samples for Comparative Examples: 2% by weight per volume ethanol solutions of eicosane (carbon number 20, p-1), heneicosane (carbon number 21, p-2), 2-methyloctane (branched alkane, p-3), tributyl o-acetylcitrate (p-4), and 1-methylpyrrole (p-5), respectively; and 2% by weight per volume aqueous solutions of 2-methyltetrahydrofuran-3-one (p-6) and acetic acid (p-7), respectively.
Ethanol alone and water alone were used as samples for correction.
The cotton pads 13 were impregnated with 40% sugar water (80 g), after which disposable wooden chopsticks 15 (80 mm in length) were placed over the cotton pads on the lid surface as “landing areas,” for use as “test insect (honeybee) feeding station 1” 10.
A nest box of test insects (honeybees) (1 colony: approx. 6,000 bees) was placed at the center of a glass hothouse (bottom face: 5 m×10 m, height (highest part): 3 m, temperature: 25° C.), and the aforementioned “test insect (honeybee) feeding station 1” was installed at a location 2 meters away from the nest box.
After confirming that at least five test insects (honeybees) were feeding at the above “test insect (honeybee) feeding station 1” installed in the hothouse, test 1 was conducted to measure the “approaching count (Mz)” and “landing count (My)” and calculate the “landing rate (Mx).”
Next, the “test insect (honeybee) feeding station 1” installed in the hothouse was replaced with each “test insect (honeybee) feeding station 2” which was let to stand still for 5 minutes, after which test 2 was conducted to measure the “approaching count (Nz)” and “landing count (Ny)” and calculate the “landing rate (Nx).”
Approaching count: Total number of times a honeybee has approached within 25 cm of the cotton wools at the feeding station during 5 minutes
Landing count: Total number of honeybees that have remained for at least 1 second on the cotton pads at the feeding station during 5 minutes
Landing rate (%): (Landing count/Approaching count)×100
The “repelling rate Q” and “corrected repelling rate R” were calculated from the above “landing rates” using the calculation formula below. For the “repelling rate of sample for correction” used to calculate the “corrected repelling rate R,” the repelling rate of each of the samples for correction above (ethanol alone or water alone being a solvent for the active ingredient) was used.
Repelling rate Q (%)={(Mx)−(Nx)}/(Mx)×100
Corrected repelling rate R (%)={Repelling rate of test sample−Repelling rate of sample for correction}/{100−Repelling rate of sample for correction}×100
The following were used as the test samples for Examples: 0.1% by weight per volume ethanol solutions of 3-methyl-2-butanol (e-4), carvacrol (x-1), isoeugenol (x-2), cinnamyl alcohol (x-3), diacetone alcohol (x-4), α-amylcinnamaldehyde (x-5), 3-methyl-2-butenal (x-6), valeraldehyde (x-7), ethyl cinnamate (x-8), methyl cinnamate (x-9), ethyl isovalerate (x-10), isoamyl formate (x-11), 5-ethyl-2-methylpyridine (x-12), 2-(3-phenylpropyl)pyridine (x-13), 2,6-dimethylpyridine (x-14), ß-ionone (x-15), 2-acetylthiazole (x-16), butylamine (x-17), and citronella oil (x-18), respectively; and a 0.1% by weight per volume aqueous solution of (3-amino-3-carboxypropyl)dimethylsulfonium chloride (x-19).

| SMILES | repelling effect / repelled behaviors of honeybees (in words) |
| --- | --- |
| CC1=C(O)C(=O)C(C)O1 (stereo not shown) [c-1, furaneol] | excellent repelling effect |

same assay, conditions: Test 3, summary in text

| SMILES | honeybee repelling rate [%] |
| --- | --- |
| CCCCCO [e-7, 1-pentanol] | ≥ 50 |
| CC1(C)C2CCC1(C)C(O)C2 (stereo not shown) [y-1, borneol] | ≥ 50 |
| COc1cc(C=O)ccc1O [y-7, vanillin] | ≥ 50 |
| CC/C=C/C=O [y-10, trans-2-pentenal] | ≥ 50 |
| CC(C)CC=O [y-14, isovaleraldehyde] | ≥ 50 |
| CCOC(=O)c1ccc(O)cc1 [y-17, ethyl 4-hydroxybenzoate] | ≥ 50 |
| CC(=O)OCC=Cc1ccccc1 [y-18, cinnamyl acetate] | ≥ 50 |
| CC(=O)OCCc1ccccc1 [y-20, phenethyl acetate] | ≥ 50 |
| CC(=O)OC/C=C(\C)CCC=C(C)C [y-27, geranyl acetate] | ≥ 50 |
| CC(C)=CCC/C(C)=C/COC=O [y-28, geranyl formate] | ≥ 50 |
| C=CCCCCCCCCC(=O)OCC [y-39, ethyl 10-undecenoate] | ≥ 50 |
| CCCCCCCCCCCC(=O)OCC [y-41, ethyl laurate] | ≥ 50 |
| C=CCOC(=O)CCC1CCCCC1 [y-43, allyl cyclohexanepropionate] | ≥ 50 |
| CCCC(=O)OCCC(C)C [y-51, isoamyl butyrate] | ≥ 50 |
| c1cnccn1 [y-57, pyrazine] | ≥ 50 |
| CCCCCCCC1CCCC(=O)O1 (stereo not shown) [y-65, δ-dodecalactone] | ≥ 50 |
| CCCCCC1CCCCC(=O)O1 (stereo not shown) [y-66, 6-undecanolactone] | ≥ 50 |
| c1ccc2cnccc2c1 [y-79, isoquinoline] | ≥ 50 |
| c1ccc(-c2nc3ccccc3nc2-c2ccccc2)cc1 [y-84, 2,3-diphenylquinoxaline] | ≥ 50 |
| Oc1cccc2nccnc12 [y-85, 5-hydroxyquinoxaline] | ≥ 50 |
| CCC(=O)Oc1c(C)occc1=O [y-96, maltol propionate] | ≥ 50 |
